Assay results reported in US20210130401A1 (THE REGENTS OF THE UNIVERSITY OF MICHIGAN, priority 2017, published 2021).

Assay: general procedure: hybrid (solid and solution phase) peptide synthesis; 2-chlorotrityl chloride resin (ChemPep, 1 mmol/g); EDCl, HOAt, DIPEA (solution couplings)
Conditions: for final purity (method not given): Waters ACQUITY UPLC, reverse-phase SunFire C18 5 um 4.6x150 mm, 0.1% TFA water/CH3CN; for cyclisation yield: cyclisation step
[1] = whole synthesis, over 4 steps, scale of the general procedure 0.1 mmol, TFA salt
[2] = whole synthesis, scale of the general procedure 0.1 mmol, TFA salt
[3] = late stage modification step, TFA salt

| Substance | step yield [3] | final purity (method not given) [3] | further results |
| --- | --- | --- | --- |
| N-((3R,6S,9S,12R)-6-ethyl-9-(3-guanidinopropyl)-12-methyl-2,5,8,11-tetraoxo-3-phenyl-1,4,7,10-tetraazacyclotetradecan-12-yl)isobutyramide | – | – | isolated yield [1]: 8.7% yield over 4 steps |
| N-((3R,6S,9S,12R)-6-ethyl-9-(3-guanidinopropyl)-12-methyl-3-(naphthalen-1-yl)-2,5,8,11-tetraoxo-1,4,7,10-tetraazacyclotetradecan-12-yl)isobutyramide | – | – | isolated mass (whole synthesis, TFA salt): 3.3 mg; final purity (method not given) [2]: >98%; isolated yield [1]: 6% |
| N-((3R,6S,9S,12R)-6-ethyl-9-(3-guanidinopropyl)-12-methyl-3-(naphthalen-1-ylmethyl)-2,5,8,11-tetraoxo-1,4,7,10-tetraazacyclotetradecan-12-yl)isobutyramide | – | – | isolated yield (whole synthesis, over 4 steps, scale of the general procedure 0.1 mmol, CF3COOH salt): 15% |
| N-((3R,6S,9S,12R)-6-ethyl-9-(3-guanidinopropyl)-12-methyl-3-(naphthalen-2-yl)-2,5,8,11-tetraoxo-1,4,7,10-tetraazacyclotetradecan-12-yl)isobutyramide | – | – | isolated mass (whole synthesis, TFA salt): 9 mg; final purity (method not given) [2]: >98%; isolated yield [1]: 15% |
| N-((3R,6S,9S,12R)-6-ethyl-12-methyl-2,5,8,11-tetraoxo-3-phenyl-9-(3-((1,4,5,6-tetrahydropyrimidin-2-yl)amino)propyl)-1,4,7,10-tetraazacyclotetradecan-12-yl)isobutyramide | 65% | >98% | – |
| N-((3R,6S,9S,12R)-6-ethyl-12-methyl-2,5,8,11-tetraoxo-3-phenyl-9-(3-((E)-2-(2,2,2-trifluoroethyl)guanidino)propyl)-1,4,7,10-tetraazacyclotetradecan-12-yl)isobutyramide | – | – | isolated mass (whole synthesis, CF3COOH salt): 1.1 mg; final purity (method not given) [2]: >98%; isolated yield [1]: 2% |
| N-((3R,6S,9S,12R)-6-ethyl-12-methyl-2,5,8,11-tetraoxo-3-phenyl-9-(3-(pyridin-2-ylamino)propyl)-1,4,7,10-tetraazacyclotetradecan-12-yl)isobutyramide | 45% yield | >98% purity | – |
| N-((3R,6S,9S,12R)-6-ethyl-12-methyl-2,5,8,11-tetraoxo-3-phenyl-9-(3-ureidopropyl)-1,4,7,10-tetraazacyclotetradecan-12-yl)isobutyramide | – | – | isolated mass (whole synthesis, TFA salt): 3.2 mg; final purity (method not given) [2]: >98% purity; isolated yield (whole synthesis, over 3 steps, scale of the general procedure 0.1 mmol, TFA salt): 6% yield over 3 steps |
| N-((3R,6S,9S,12R)-6-ethyl-12-methyl-2,5,8,11-tetraoxo-3-phenyl-9-((pyridin-2-ylamino)methyl)-1,4,7,10-tetraazacyclotetradecan-12-yl)isobutyramide | 54% yield | >98% purity | – |
| N-((3R,6S,9S,12R)-6-ethyl-12-methyl-3-(naphthalen-2-yl)-2,5,8,11-tetraoxo-9-(3-((1,4,5,6-tetrahydropyrimidin-2-yl)amino)propyl)-1,4,7,10-tetraazacyclotetradecan-12-yl)isobutyramide | 68% | >98% | – |
| N-((3R,6S,9S,12R)-6-ethyl-12-methyl-9-(2-((1-methylpiperidin-4-yl)amino)ethyl)-2,5,8,11-tetraoxo-3-phenyl-1,4,7,10-tetraazacyclotetradecan-12-yl)isobutyramide | 65% yield | >98% purity | – |
| N-((3R,6S,9S,12R)-6-ethyl-12-methyl-9-(3-(3-methylguanidino)propyl)-2,5,8,11-tetraoxo-3-phenyl-1,4,7,10-tetraazacyclohexadecan-12-yl)isobutyramide | – | – | cyclisation yield (over 3 steps from 36h, TFA salt): 75% yield over 3 steps |
| N-((3R,6S,9S,12R)-6-ethyl-12-methyl-9-(3-(3-methylguanidino)propyl)-2,5,8,11-tetraoxo-3-phenyl-1,4,7,10-tetraazacyclotetradecan-12-yl)isobutyramide | – | – | isolated yield (whole synthesis, over 4 steps from resin 24, scale of the general procedure 0.1 mmol, TFA salt): 15.4% yield over 4 steps; difficulty met [2]: D-α-phenylglycine was isomerized to L-α-phenylglycine during the solid phase peptide synthesis |
| N-((3R,6S,9S,12R)-6-ethyl-12-methyl-9-(3-((1-methylpiperidin-4-yl)amino)propyl)-2,5,8,11-tetraoxo-3-phenyl-1,4,7,10-tetraazacyclotetradecan-12-yl)isobutyramide | 50% yield | >98% purity | – |
| N-((3R,6S,9S,12R)-6-ethyl-12-methyl-9-(((1-methylpiperidin-4-yl)amino)methyl)-2,5,8,11-tetraoxo-3-phenyl-1,4,7,10-tetraazacyclotetradecan-12-yl)isobutyramide | 65% yield | >98% purity | – |
| N-((3R,6S,9S,12R)-9-(2-((1H-imidazol-2-yl)amino)ethyl)-6-ethyl-12-methyl-2,5,8,11-tetraoxo-3-phenyl-1,4,7,10-tetraazacyclotetradecan-12-yl)isobutyramide | 10% yield | >98% purity | – |

| Substance | step yield [3] | final purity (method not given) [3] | further results |
| --- | --- | --- | --- |
| N-((3R,6S,9S,12R)-9-(2-((4,5-dihydro-1H-imidazol-2-yl)amino)ethyl)-6-ethyl-12-methyl-2,5,8,11-tetraoxo-3-phenyl-1,4,7,10-tetraazacyclotetradecan-12-yl)isobutyramide | 47% yield | >98% purity | – |
| N-((3R,6S,9S,12R)-9-(3-(3-acetylguanidino)propyl)-3-(cyclohexylmethyl)-6-ethyl-12-methyl-2,5,8,11-tetraoxo-1,4,7,10-tetraazacyclotetradecan-12-yl)isobutyramide | 36% | >98% | – |
| N-((3R,6S,9S,12R)-9-(3-(3-acetylguanidino)propyl)-6-ethyl-12-methyl-2,5,8,11-tetraoxo-3-phenyl-1,4,7,10-tetraazacyclotetradecan-12-yl)isobutyramide | 61% | >98% | – |
| N-((3R,6S,9S,12R)-9-(3-(3-butylguanidino)propyl)-3-(cyclohexylmethyl)-6-ethyl-12-methyl-2,5,8,11-tetraoxo-1,4,7,10-tetraazacyclotetradecan-12-yl)isobutyramide | 66% | >98% | – |
| N-((3R,6S,9S,12R)-9-(3-(3-carbamimidoylguanidino)propyl)-3-(cyclohexylmethyl)-6-ethyl-12-methyl-2,5,8,11-tetraoxo-1,4,7,10-tetraazacyclotetradecan-12-yl)isobutyramide | 38% | >98% | – |
| N-((3R,6S,9S,12R)-9-(3-(3-cyanoguanidino)propyl)-3-(cyclohexylmethyl)-6-ethyl-12-methyl-2,5,8,11-tetraoxo-1,4,7,10-tetraazacyclotetradecan-12-yl)isobutyramide | 53% | >98% | – |
| N-((3R,6S,9S,12R)-9-(3-((1H-imidazol-2-yl)amino)propyl)-6-ethyl-12-methyl-2,5,8,11-tetraoxo-3-phenyl-1,4,7,10-tetraazacyclotetradecan-12-yl)isobutyramide | 24% yield | >98% purity | – |
| N-((3R,6S,9S,12R)-9-(3-((4,5-dihydro-1H-imidazol-2-yl)amino)propyl)-6-ethyl-12-methyl-2,5,8,11-tetraoxo-3-phenyl-1,4,7,10-tetraazacyclotetradecan-12-yl)isobutyramide | 53% yield | >98% purity | – |
| N-((3R,6S,9S,12R)-9-(3-((E)-2,3-dimethylguanidino)propyl)-6-ethyl-12-methyl-2,5,8,11-tetraoxo-3-phenyl-1,4,7,10-tetraazacyclohexadecan-12-yl)isobutyramide | – | – | cyclisation yield (over 3 steps from 36i, TFA salt): 27% yield over 3 steps |
| N-((3R,6S,9S,12R)-9-(3-((amino(methylamino)methyl)amino)propyl)-3-(cyclohexylmethyl)-6-ethyl-12-methyl-2,5,8,11-tetraoxo-1,4,7,10-tetraazacyclotetradecan-12-yl)isobutyramide | 62% | >98% | – |
| N-((3R,6S,9S,12R)-9-(3-guanidinopropyl)-6-isopropyl-12-methyl-2,5,8,11-tetraoxo-3-phenyl-1,4,7,10-tetraazacyclotetradecan-12-yl)isobutyramide | – | – | isolated mass (whole synthesis, TFA salt): 11.7 mg; final purity (method not given) [2]: >98%; isolated yield [1]: 20% |
| N-((3R,6S,9S,12R)-9-(3-guanidinopropyl)-12-methyl-2,5,8,11-tetraoxo-3-phenyl-6-propyl-1,4,7,10-tetraazacyclotetradecan-12-yl)isobutyramide | – | – | isolated mass (whole synthesis, TFA salt): 19.6 mg; final purity (method not given) [2]: >98%; isolated yield [1]: 34% |
| N-((3R,6S,9S,12R)-9-(4-(dimethylamino)butyl)-6-ethyl-12-methyl-2,5,8,11-tetraoxo-3-phenyl-1,4,7,10-tetraazacyclotetradecan-12-yl)isobutyramide | 32% yield | >98% purity | – |
| N-((3R,6S,12R)-6-ethyl-12-methyl-2,5,8,11-tetraoxo-3-phenyl-9-(2-(pyridin-2-ylamino)ethyl)-1,4,7,10-tetraazacyclotetradecan-12-yl)isobutyramide | 54% yield | >98% purity | – |
| N-((3R,6S,12R)-6-ethyl-12-methyl-2,5,8,11-tetraoxo-3-phenyl-9-(3-(pyrimidin-2-ylamino)propyl)-1,4,7,10-tetraazacyclotetradecan-12-yl)isobutyramide | 69% | >98% | – |
